Test results taken from article PMC4996973, “Topology and structure of an engineered human cohesin complex bound to Pds5B” (Nature Communications, 2016).
No constants are given. Whether binding was seen depends on the method and setting. Some binding calls cover weakened binding; strength is not graded here. For some assays here: Sequences can lack the tags named with a protein.

What was measured:
Smc3^B-FLAG (human) = molecular target: T1, Smc3^B-FLAG (human) (UniProt Q9UQE7); assay: tandem affinity co-purification (Ni-NTA, then anti-FLAG M2 agarose); subunits co-expressed in sf9 cells; lysate in buffer A (500 mM KCl) on Ni-NTA by Scc1^10HIS, then anti-FLAG agarose by Smc3-FLAG; SDS-PAGE and silver staining; full-length tetramers further purified by glycerol density gradient centrifugation
T1 sequence: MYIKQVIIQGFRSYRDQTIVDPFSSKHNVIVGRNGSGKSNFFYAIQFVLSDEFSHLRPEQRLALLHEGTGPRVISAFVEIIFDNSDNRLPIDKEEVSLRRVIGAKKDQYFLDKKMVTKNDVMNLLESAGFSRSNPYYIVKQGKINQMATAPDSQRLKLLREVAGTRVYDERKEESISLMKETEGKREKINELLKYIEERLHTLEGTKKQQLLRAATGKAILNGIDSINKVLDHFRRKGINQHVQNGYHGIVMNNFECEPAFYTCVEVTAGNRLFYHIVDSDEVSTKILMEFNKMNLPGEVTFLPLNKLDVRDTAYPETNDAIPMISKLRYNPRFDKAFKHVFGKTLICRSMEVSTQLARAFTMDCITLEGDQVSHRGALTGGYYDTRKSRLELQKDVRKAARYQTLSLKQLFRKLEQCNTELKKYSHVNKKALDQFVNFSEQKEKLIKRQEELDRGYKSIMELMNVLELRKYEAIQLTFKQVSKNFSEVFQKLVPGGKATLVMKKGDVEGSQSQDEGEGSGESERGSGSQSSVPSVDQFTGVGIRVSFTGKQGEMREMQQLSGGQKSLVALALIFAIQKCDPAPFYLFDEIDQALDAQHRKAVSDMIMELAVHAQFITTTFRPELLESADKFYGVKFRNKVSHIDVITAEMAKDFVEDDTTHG

[1] = molecular target: Smc3^FLAG (full-length) (human) (UniProt Q9UQE7); assay: as above

binding (Smc3^B-FLAG (human)): binds
binding [1]: binds
B1: SA1 (protein, UniProt Q8WVM7 1-1258)
chain: MITSELPVLQDSTNETTAHSDAGSELEETEVKGKRKRGRPGRPPSTNKKPRKSPGEKSRIEAGIRGAGRGRANGHPQQNGEGEPVTLFEVVKLGKSAMQSVVDDWIESYKQDRDIALLDLINFFIQCSGCRGTVRIEMFRNMQNAEIIRKMTEEFDEDSGDYPLTMPGPQWKKFRSNFCEFIGVLIRQCQYSIIYDEYMMDTVISLLTGLSDSQVRAFRHTSTLAAMKLMTALVNVALNLSIHQDNTQRQYEAERNKMIGKRANERLELLLQKRKELQENQDEIENMMNSIFKGIFVHRYRDAIAEIRAICIEEIGVWMKMYSDAFLNDSYLKYVGWTLHDRQGEVRLKCLKALQSLYTNRELFPKLELFTNRFKDRIVSMTLDKEYDVAVEAIRLVTLILHGSEEALSNEDCENVYHLVYSAHRPVAVAAGEFLHKKLFSRHDPQAEEALAKRRGRNSPNGNLIRMLVLFFLESELHEHAAYLVDSLWESSQELLKDWECMTELLLEEPVQGEEAMSDRQESALIELMVCTIRQAAEAHPPVGRGTGKRVLTAKERKTQIDDRNKLTEHFIITLPMLLSKYSADAEKVANLLQIPQYFDLEIYSTGRMEKHLDALLKQIKFVVEKHVESDVLEACSKTYSILCSEEYTIQNRVDIARSQLIDEFVDRFNHSVEDLLQEGEEADDDDIYNVLSTLKRLTSFHNAHDLTKWDLFGNCYRLLKTGIEHGAMPEQIVVQALQCSHYSILWQLVKITDGSPSKEDLLVLRKTVKSFLAVCQQCLSNVNTPVKEQAFMLLCDLLMIFSHQLMTGGREGLQPLVFNPDTGLQSELLSFVMDHVFIDQDEENQSMEGDEEDEANKIEALHKRRNLLAAFSKLIIYDIVDMHAAADIFKHYMKYYNDYGDIIKETLSKTRQIDKIQCAKTLILSLQQLFNELVQEQGPNLDRTSAHVSGIKELARRFALTFGLDQIKTREAVATLHKDGIEFAFKYQNQKGQEYPPPNLAFLEVLSEFSSKLLRQDKKTVHSYLEKFLTEQMMERREDVWLPLISYRNSLVTGGEDDRMSVNSGSSSSKTSSVRNKKGRPPLHKKRVEDESLDNTWLNRTDTMIQTPGPLPAPQLTSTVLRENSRPMGDQIQEPESEHGSEPDFLHNPQMQISWLGQPKLEDLNRKDRTGMNYMKVRTGVRHAVRGLMEEDAEPIFEDVMMSSRSQLEDMNEEFEDTMVIDLPPSRNRRERAELRPDFFDSAAIIEDDSGFGMPMF
